The values that follow come from patent publication US6087493A, “Porphyrin compounds as telomerase inhibitors” (Regents of the University of Texas System, priority 1998, dated 2000).

Series [1] deals with quadruplex formed by d(TTAGGG). As to the kind of experiment: NMR titration of parallel-stranded quadruplex. Format: binding, human. To be noted: one equivalent TMPyP4.
Series [2] relates to intramolecular quadruplex d(AG3 [T2 AG3 ]3). In words: UV titration with intramolecular quadruplex. The format is binding, human.

Regarding `C[n+]1ccc(-c2c3nc(c(-c4cc[n+](C)cc4)c4ccc([nH]4)c(-c4cc[n+](C)cc4)c4nc(c(-c5cc[n+](C)cc5)c5ccc2[nH]5)C=C4)C=C3)cc1` [TMPyP4, 5,10,15,20-tetra-(N-methyl-4-pyridyl)porphine], in series [1], the “G4(NH1) upfield shift” value is on record as 0.7 ppm, the “G5(NH1) upfield shift” value was 0.2 ppm and the “G6(NH1) shift” value is “unchanged”. In addition, in series [2], the UV spectral change result was “sharp isosbestic points, hypochromicity, and a marked red-shift”; the “stoichiometry of porphyrins per quadruplex” value was “two porphyrins per quadruplex”.
